Patent US20040006216A1
Results are given in words; binding and its absence hold for the method and conditions named. Some binding calls cover weakened binding; strength is not graded here.

Chains of the proteins cited; added tags and fusions are not shown. Lines headed by an entry give the natural chain unless they say otherwise; changes in a name come on top.
UniProt P07766: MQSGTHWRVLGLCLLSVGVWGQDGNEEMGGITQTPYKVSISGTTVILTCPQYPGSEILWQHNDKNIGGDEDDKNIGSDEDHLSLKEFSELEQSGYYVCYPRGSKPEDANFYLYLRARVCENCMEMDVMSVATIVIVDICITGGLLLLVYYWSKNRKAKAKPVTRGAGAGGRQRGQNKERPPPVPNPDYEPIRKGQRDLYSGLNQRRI
UniProt P09693: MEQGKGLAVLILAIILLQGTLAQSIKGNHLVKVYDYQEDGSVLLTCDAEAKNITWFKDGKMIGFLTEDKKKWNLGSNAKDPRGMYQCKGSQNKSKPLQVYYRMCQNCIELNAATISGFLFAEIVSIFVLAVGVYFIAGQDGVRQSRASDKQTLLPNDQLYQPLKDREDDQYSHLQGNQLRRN
UniProt P04234: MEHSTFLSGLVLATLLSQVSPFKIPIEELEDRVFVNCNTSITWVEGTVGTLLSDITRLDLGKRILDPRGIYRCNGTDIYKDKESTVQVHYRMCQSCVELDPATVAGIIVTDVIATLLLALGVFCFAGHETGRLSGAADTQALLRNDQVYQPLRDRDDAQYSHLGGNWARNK
UniProt P20963: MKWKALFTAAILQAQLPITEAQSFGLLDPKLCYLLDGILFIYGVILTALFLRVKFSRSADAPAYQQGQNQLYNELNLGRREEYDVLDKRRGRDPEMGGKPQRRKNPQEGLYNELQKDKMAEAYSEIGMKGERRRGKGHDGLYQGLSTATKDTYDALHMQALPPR

Target: human CD3 antigen complex (human) (UniProt P07766+P09693+P04234+P20963)
Assay: FACS competition on human T-cell blasts, competitor FITC UCHT-1

binding: binds
B1: YTH 12.5.14.2 rat IgG2b monoclonal antibody specific for the CD3 antigen complex (antibody, V domains shown)
VH: QVQLQESGGGLVQPGRSMKLSCAASGFTFSSFPMAWVRQAPKKGLEWVATISTSGGRTYYRDSVKGRFTISRDNGKSILYLQMNSLRSEDTATYYCSRFRQYSGGFDYWGQGTTVTVSS
VL: QAVVTQANSVSTSLGSTVKLSCTLSSGNIENNYVHWYQLYEGRSPTTMIYDDDKRPDGVPDRFSGSIDRSSNSAFLTIHNVAIEDEAIYFCHSYVSSFNVFGGGTKLTVLR
